Measured values reported in the supplement of paper PMC10849652.
The list shows a part of the results.

Amino acid sequences for entries named in this document (tags omitted). A change or cut given only in a name is not applied to a line headed by its entry.
UniProt Q96GX9: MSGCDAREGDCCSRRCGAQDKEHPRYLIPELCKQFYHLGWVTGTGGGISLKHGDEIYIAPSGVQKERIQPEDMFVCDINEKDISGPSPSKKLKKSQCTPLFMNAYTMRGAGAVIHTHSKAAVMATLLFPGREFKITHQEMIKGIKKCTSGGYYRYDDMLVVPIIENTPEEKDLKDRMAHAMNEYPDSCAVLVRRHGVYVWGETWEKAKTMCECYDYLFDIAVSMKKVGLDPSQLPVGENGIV
UniProt P02649, whole entry, looked up: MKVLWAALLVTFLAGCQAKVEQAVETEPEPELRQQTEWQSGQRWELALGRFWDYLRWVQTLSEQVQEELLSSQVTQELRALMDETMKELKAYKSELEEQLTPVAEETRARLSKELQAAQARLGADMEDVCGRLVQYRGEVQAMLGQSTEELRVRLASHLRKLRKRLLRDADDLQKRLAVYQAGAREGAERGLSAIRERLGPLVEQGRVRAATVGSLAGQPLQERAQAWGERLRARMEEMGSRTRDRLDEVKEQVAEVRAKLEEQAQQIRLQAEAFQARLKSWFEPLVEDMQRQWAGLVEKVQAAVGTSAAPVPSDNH
UniProt P36404: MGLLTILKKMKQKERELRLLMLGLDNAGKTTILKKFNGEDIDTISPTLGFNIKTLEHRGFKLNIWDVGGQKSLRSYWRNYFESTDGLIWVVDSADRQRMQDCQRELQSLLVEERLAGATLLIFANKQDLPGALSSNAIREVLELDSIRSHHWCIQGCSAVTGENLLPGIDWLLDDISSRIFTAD
UniProt P13798: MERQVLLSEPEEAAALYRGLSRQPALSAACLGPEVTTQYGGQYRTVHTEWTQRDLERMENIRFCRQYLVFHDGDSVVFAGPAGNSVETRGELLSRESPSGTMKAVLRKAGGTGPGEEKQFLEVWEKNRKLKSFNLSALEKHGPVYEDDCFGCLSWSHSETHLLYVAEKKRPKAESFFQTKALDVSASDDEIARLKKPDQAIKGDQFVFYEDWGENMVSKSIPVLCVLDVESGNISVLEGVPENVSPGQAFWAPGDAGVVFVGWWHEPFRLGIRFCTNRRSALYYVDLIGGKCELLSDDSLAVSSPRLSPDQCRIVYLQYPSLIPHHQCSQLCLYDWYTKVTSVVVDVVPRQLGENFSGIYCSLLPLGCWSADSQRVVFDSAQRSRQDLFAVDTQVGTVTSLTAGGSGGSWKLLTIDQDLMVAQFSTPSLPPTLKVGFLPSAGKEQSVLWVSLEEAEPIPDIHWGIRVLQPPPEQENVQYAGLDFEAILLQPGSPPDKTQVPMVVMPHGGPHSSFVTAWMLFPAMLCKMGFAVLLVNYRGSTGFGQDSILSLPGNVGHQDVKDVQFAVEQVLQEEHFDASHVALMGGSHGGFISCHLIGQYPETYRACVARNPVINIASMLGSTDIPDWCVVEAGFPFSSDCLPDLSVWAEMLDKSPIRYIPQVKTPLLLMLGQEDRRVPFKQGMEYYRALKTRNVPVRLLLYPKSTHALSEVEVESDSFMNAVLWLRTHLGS
UniProt Q8N6H7: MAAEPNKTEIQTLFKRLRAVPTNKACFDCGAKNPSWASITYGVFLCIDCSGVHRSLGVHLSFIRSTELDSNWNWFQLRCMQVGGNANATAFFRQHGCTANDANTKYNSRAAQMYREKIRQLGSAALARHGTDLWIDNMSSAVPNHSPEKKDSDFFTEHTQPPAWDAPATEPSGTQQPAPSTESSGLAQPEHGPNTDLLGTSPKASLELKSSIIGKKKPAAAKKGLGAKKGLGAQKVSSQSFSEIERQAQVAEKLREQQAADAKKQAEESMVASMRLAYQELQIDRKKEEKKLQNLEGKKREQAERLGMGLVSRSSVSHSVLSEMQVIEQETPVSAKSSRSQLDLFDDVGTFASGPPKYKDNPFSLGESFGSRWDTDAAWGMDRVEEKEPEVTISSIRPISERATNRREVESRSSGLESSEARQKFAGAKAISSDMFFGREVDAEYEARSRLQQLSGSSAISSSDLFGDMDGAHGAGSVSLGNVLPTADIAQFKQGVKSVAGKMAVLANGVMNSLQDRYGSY
UniProt Q9UH62: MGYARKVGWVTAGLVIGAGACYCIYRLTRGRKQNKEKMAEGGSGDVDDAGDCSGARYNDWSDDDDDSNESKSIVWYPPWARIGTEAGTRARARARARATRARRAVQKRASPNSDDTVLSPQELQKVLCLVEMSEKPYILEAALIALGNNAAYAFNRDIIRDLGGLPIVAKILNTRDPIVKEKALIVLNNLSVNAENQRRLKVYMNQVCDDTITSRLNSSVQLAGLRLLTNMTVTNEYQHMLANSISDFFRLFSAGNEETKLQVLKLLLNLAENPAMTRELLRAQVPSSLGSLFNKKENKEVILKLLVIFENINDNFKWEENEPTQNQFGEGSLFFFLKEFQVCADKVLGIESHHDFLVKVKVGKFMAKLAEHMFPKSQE
UniProt O14727: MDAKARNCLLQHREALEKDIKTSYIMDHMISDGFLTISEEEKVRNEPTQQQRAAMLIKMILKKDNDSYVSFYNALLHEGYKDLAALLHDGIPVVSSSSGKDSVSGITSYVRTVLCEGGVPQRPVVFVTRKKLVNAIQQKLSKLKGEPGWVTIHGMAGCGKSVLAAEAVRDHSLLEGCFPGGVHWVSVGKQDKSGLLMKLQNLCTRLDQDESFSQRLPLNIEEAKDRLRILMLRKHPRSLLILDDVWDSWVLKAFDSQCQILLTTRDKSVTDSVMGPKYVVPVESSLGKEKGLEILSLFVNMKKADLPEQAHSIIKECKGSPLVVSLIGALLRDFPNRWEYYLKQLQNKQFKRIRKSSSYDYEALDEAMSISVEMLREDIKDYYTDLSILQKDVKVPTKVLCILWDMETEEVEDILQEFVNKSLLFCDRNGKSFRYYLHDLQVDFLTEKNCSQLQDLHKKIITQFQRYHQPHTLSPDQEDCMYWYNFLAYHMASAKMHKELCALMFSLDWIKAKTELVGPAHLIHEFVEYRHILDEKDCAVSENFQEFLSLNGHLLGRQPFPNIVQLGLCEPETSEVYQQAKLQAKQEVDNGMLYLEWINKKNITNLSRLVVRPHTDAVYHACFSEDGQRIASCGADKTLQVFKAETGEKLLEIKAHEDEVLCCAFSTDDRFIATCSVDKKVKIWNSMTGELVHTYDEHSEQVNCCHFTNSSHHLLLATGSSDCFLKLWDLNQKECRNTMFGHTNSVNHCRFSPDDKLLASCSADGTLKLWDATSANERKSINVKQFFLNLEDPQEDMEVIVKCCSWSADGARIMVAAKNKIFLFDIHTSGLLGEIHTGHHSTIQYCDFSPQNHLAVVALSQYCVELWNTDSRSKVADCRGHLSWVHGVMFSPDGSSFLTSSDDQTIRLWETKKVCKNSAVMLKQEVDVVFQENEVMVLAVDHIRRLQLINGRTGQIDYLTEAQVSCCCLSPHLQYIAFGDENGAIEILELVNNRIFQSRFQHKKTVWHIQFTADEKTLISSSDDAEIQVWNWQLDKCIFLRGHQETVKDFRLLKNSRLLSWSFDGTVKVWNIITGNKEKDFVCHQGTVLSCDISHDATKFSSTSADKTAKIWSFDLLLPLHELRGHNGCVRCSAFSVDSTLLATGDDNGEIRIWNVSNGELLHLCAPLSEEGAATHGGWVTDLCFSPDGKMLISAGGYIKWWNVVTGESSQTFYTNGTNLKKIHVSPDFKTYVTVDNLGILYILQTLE
UniProt Q9Y4X5: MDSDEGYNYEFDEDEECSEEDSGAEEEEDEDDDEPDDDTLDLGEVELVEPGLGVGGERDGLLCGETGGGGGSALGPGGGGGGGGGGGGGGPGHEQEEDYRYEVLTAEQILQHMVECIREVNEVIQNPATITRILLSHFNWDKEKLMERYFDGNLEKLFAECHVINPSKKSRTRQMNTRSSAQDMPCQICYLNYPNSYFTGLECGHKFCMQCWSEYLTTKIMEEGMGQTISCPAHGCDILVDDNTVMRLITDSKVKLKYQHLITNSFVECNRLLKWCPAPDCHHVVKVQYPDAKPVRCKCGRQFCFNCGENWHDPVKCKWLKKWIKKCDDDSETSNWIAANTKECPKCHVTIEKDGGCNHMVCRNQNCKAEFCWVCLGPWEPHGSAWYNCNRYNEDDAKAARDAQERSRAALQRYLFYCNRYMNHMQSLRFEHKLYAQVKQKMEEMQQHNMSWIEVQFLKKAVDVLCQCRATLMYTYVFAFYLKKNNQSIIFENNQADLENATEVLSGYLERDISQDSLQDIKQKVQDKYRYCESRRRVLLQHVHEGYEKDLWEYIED

Tests used:
Experiment in all cases: log2 fold change, soluble protein after heating vs DMSO (PISA); higher = thermal stabilisation; K562 lysate, 10 uM; active = over 0.2 and 3.5 SD of the protein, either way, in both replicates (recomputed)
alvocidib = compound: CN1CC[C@H](c2c(O)cc(O)c3c(=O)cc(-c4ccccc4Cl)oc23)[C@H](O)C1 [alvocidib]
Procedure, shortened: (§1)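 The values are log-two fold changes in thermal stability compared with solvent controls and come from duplicates. They were obtained by TMTpro 16plex LC-MS/MS, with channel sums equalised, on the supernatant after 21,000xg for 90 min. That supernatant came from crude K562 extract at 1 mg/mL protein treated with 10 μM compound for 30 min, heated for 3 min across 48°C-58°C, pooled and brought to 0.5% NP-40 at 4°C.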

Tubastatin A = compound: CN1CCc2c(c3ccccc3n2Cc2ccc(C(=O)NO)cc2)C1 [Tubastatin A]
Procedure, shortened: as §1

[1] = compound: CNC(=O)C1=CC=CC=C1NC2=NC(=NC=C2Cl)NC3=C(C=C(C=C3)N4CCOCC4)OC
Procedure, shortened: as §1

defactinib = compound: CNC(=O)c1ccc(Nc2ncc(C(F)(F)F)c(NCc3nccnc3N(C)S(C)(=O)=O)n2)cc1 [defactinib]
Procedure, shortened: as §1

[2] = compound: CNc1nc(-c2ccc3c(N)n[nH]c3c2)cc(N2C[C@@H](C(=O)NC3CCCCC3)CC[C@H]2C)n1
Procedure, shortened: as §1

encorafenib = compound: COC(=O)N[C@@H](C)CNc1nccc(-c2cn(C(C)C)nc2-c2cc(Cl)cc(NS(C)(=O)=O)c2F)n1 [encorafenib]
Procedure, shortened: as §1

[3] = compound: COC(=O)[C@H](CCSC)NC(=O)C1=C(C=C(C=C1)NC[C@H](CS)N)C2=CC=CC=C2
Procedure, shortened: as §1

alisertib = compound: COc1cc(Nc2ncc3c(n2)-c2ccc(Cl)cc2C(c2c(F)cccc2OC)=NC3)ccc1C(=O)O [alisertib]
Procedure, shortened: as §1

[4] = compound: COc1cc2nc(-c3cc(F)ccc3O)nc(N[C@@H]3CNC[C@H]3C(C)(C)O)c2cc1OC
Procedure, shortened: as §1

gefitinib = compound: COc1cc2ncnc(Nc3ccc(F)c(Cl)c3)c2cc1OCCCN1CCOCC1 [gefitinib]
Procedure, shortened: as §1

lapatinib = compound: CS(=O)(=O)CCNCc1ccc(-c2ccc3ncnc(Nc4ccc(OCc5cccc(F)c5)c(Cl)c4)c3c2)o1 [lapatinib]
Procedure, shortened: as §1

pictilisib = compound: CS(=O)(=O)N1CCN(Cc2cc3nc(-c4cccc5[nH]ncc45)nc(N4CCOCC4)c3s2)CC1 [pictilisib]
Procedure, shortened: as §1

crizotinib = compound: C[C@@H](Oc1cc(-c2cnn(C3CCNCC3)c2)cnc1N)c1c(Cl)ccc(F)c1Cl [crizotinib]
Procedure, shortened: as §1

[5] = compound: C[C@H](C1=CC=C(C=C1)C(=O)NC2=C3C=CNC3=NC=C2)N
Procedure, shortened: as §1

duvelisib = compound: C[C@H](Nc1ncnc2nc[nH]c12)c1cc2cccc(Cl)c2c(=O)n1-c1ccccc1 [duvelisib]
Procedure, shortened: as §1

gandotinib = compound: Cc1cc(Nc2cc(CN3CCOCC3)c3nc(C)c(Cc4ccc(Cl)cc4F)n3n2)n[nH]1 [gandotinib]
Procedure, shortened: as §1

tozasertib = compound: Cc1cc(Nc2cc(N3CCN(C)CC3)nc(Sc3ccc(NC(=O)C4CC4)cc3)n2)n[nH]1 [tozasertib]
Procedure, shortened: as §1

doramapimod = compound: Cc1ccc(-n2nc(C(C)(C)C)cc2NC(=O)Nc2ccc(OCCN3CCOCC3)c3ccccc23)cc1 [doramapimod]
Procedure, shortened: as §1

bafetinib = compound: Cc1ccc(NC(=O)c2ccc(CN3CC[C@H](N(C)C)C3)c(C(F)(F)F)c2)cc1Nc1nccc(-c2cncnc2)n1 [bafetinib]
Procedure, shortened: as §1

[6] = compound: Cc1cccc(CC(=O)N2CCc3c2ccc(-c2cn(C)c4ncnc(N)c24)c3F)n1
Procedure, shortened: as §1

Measured: log2 fold change

APIP (UniProt Q96GX9)
inactive: alvocidib -0.089 | Tubastatin A 0.017 | [1] -0.037 | defactinib 0.025 | [2] -0.003 | encorafenib 0.08 | [3] -0.074 | alisertib 0.011 | [4] 0.044 | gefitinib 0.018 | lapatinib -0.031 | pictilisib 0.008 | crizotinib -0.007 | [5] -0.213 | duvelisib 0.036 | gandotinib 0.098 | tozasertib -0.024 | doramapimod -0.004 | bafetinib 0.057 | [6] 0.126

APOE (UniProt P02649)
inactive: alvocidib 0.044 | Tubastatin A 0.025 | [1] 0.041 | defactinib 0.015 | [2] -0.007 | encorafenib 0.046 | [3] -0.03 | alisertib -0.123 | [4] -0.02 | gefitinib 0.015 | lapatinib -0.036 | pictilisib -0.068 | crizotinib 0.017 | [5] 0.068 | duvelisib 0.029 | gandotinib -0.062 | tozasertib -0.061 | doramapimod -0.002 | bafetinib -0.036 | [6] -0.02

ARL2 (UniProt P36404)
inactive: alvocidib 0.037 | Tubastatin A -0.053 | [1] -0.033 | defactinib -0.051 | [2] 0.009 | encorafenib -0.059 | [3] 0.015 | alisertib 0.033 | [4] 0.012 | gefitinib -0.013 | lapatinib -0.043 | pictilisib -0.042 | crizotinib -0.03 | [5] -0.008 | duvelisib -0.003 | gandotinib -0.055 | tozasertib 0.046 | doramapimod 0.059 | bafetinib -0.069 | [6] 0.002

APEH (UniProt P13798)
inactive: alvocidib 0.011 | Tubastatin A 0.011 | [1] 0 | defactinib -0.013 | [2] 0.013 | encorafenib -0.005 | [3] -0.015 | alisertib -0.015 | [4] -0.01 | gefitinib 0 | lapatinib -0.026 | pictilisib -0.023 | crizotinib 0.043 | [5] 0.023 | duvelisib 0.016 | gandotinib 0.022 | tozasertib -0.01 | doramapimod -0.003 | bafetinib 0.015 | [6] -0.04

Looked up one by one from the list above (2):
APOE (UniProt P02649)
inactive: alvocidib 0.044 | Tubastatin A 0.025 | [1] 0.041 | defactinib 0.015 | [2] -0.007 | encorafenib 0.046 | [3] -0.03 | alisertib -0.123 | [4] -0.02 | gefitinib 0.015 | lapatinib -0.036 | pictilisib -0.068 | crizotinib 0.017 | [5] 0.068 | duvelisib 0.029 | gandotinib -0.062 | tozasertib -0.061 | doramapimod -0.002 | bafetinib -0.036 | [6] -0.02

APIP (UniProt Q96GX9)
inactive: alvocidib -0.089 | Tubastatin A 0.017 | [1] -0.037 | defactinib 0.025 | [2] -0.003 | encorafenib 0.08 | [3] -0.074 | alisertib 0.011 | [4] 0.044 | gefitinib 0.018 | lapatinib -0.031 | pictilisib 0.008 | crizotinib -0.007 | [5] -0.213 | duvelisib 0.036 | gandotinib 0.098 | tozasertib -0.024 | doramapimod -0.004 | bafetinib 0.057 | [6] 0.126

Following part:

ARFGAP2 (UniProt Q8N6H7)
inactive: alvocidib -0.012 | Tubastatin A -0.007 | [1] -0.002 | defactinib 0.024 | [2] -0.055 | encorafenib 0.053 | [3] -0.01 | alisertib 0.027 | [4] -0.015 | gefitinib 0.016 | lapatinib 0.045 | pictilisib 0 | crizotinib 0.028 | [5] -0.023 | duvelisib -0.026 | gandotinib 0.114 | tozasertib 0.024 | doramapimod 0.09 | bafetinib -0.046 | [6] -0.006

ARMCX3 (UniProt Q9UH62)
inactive: alvocidib 0.022 | Tubastatin A -0.061 | [1] -0.018 | defactinib 0.017 | [2] 0.026 | encorafenib -0.006 | [3] 0.015 | alisertib 0.055 | [4] 0.042 | gefitinib -0.053 | lapatinib -0.058 | pictilisib 0.005 | crizotinib -0.076 | [5] 0.078 | duvelisib 0.064 | gandotinib -0.064 | tozasertib 0.005 | doramapimod -0.003 | bafetinib -0.044 | [6] 0.032

APAF1 (UniProt O14727)
inactive: alvocidib -0.006 | Tubastatin A -0.174 | [1] -0.026 | defactinib -0.015 | [2] 0.008 | encorafenib -0.017 | [3] 0.129 | alisertib -0.027 | [4] 0.061 | gefitinib 0.017 | lapatinib 0.022 | pictilisib -0.068 | crizotinib -0.09 | [5] -0.015 | duvelisib -0.011 | gandotinib -0.058 | tozasertib -0.025 | doramapimod 0.05 | bafetinib 0.02 | [6] 0.061

ARIH1 (UniProt Q9Y4X5)
inactive: alvocidib 0.012 | Tubastatin A 0.058 | [1] 0.011 | defactinib -0.032 | [2] 0.001 | encorafenib -0.007 | [3] -0.054 | alisertib 0.004 | [4] -0.006 | gefitinib -0.001 | lapatinib 0.008 | pictilisib 0.005 | crizotinib -0.006 | [5] 0.018 | duvelisib 0.033 | gandotinib -0.033 | tozasertib -0.017 | doramapimod 0.028 | bafetinib -0.036 | [6] -0.063
